# Laboratory results: US6630135B1, “Use of sustained release antibiotic compositions in ophthalmic surgical procedures” (Alcon Laboratories, Inc., priority 1993, dated 2003)
# Test: Ocular tissue drug concentration after topical dosing of rabbit eyes (HPLC)
# Assay type: in vivo, New Zealand albino rabbit
# Conditions: at one hour after topical administration of 0.3% in a single dose
# Method: New Zealand albino rabbit eyes were selected for evaluation of ciprofloxacin with enhanced sustained vehicle. The following formulations were tested: The route of administration was topical. The rabbits received 30 microliters of either the gel or solution formulations in both eyes. At the end of the study, the aqueous humor and cornea were collected and assayed by high performance liquid chromatography to determine the amount of drug present.
compound,measurement,value
O=C(O)c1cn(C2CC2)c2cc(N3CCNCC3)c(F)cc2c1=O [Ciprofloxacin],maximum concentration in the aqueous humor,0.69 µg/g
